Earlier results, collected in patent US20220026427A1, “CELL BASED ASSAYS AND KITS FOR ASSESSING SERUM CHOLINERGIC RECEPTOR ACTIVITY” (Centre for Addiction and Mental Health, priority 2017, published 2022).
Counter-ions that a name gives are not always drawn.

Settings: in vivo, iv; cited from earlier work

## CN1[C@@H]2C[C@@H](OC(=O)[C@H](CO)c3ccccc3)C[C@H]1[C@@H]1O[C@@H]12 [scopolamine, Scopolamine Hydrobromide]
  time at which plasma levels peak: 30 min
